Experimental findings from PMC4765350 are described below.

The target of this test is BtuC2D2 mutant E159Q (E. coli). Put plainly: SPR; fresh BtuC2D2 E159Q or the same preparation incubated for 7 hours at the ATP-hydrolyzing conditions, immobilised; 0.5 uM apo BtuF injected; both purified. In general terms: Surface plasmon resonance follows binding to a sensor surface in real time, without labels.

These are yes or no findings as the source states them, for the method shown. A result given as binding can be weak or reduced; the word gives no strength. Where a sequence is shown, tags or fusion partners need not be part of it.

B1: BtuF, substrate binding protein (SBP) of the vitamin B12 transport system, FLAG-tagged (protein, UniProt P37028 23-266)
chain: APRVITLSPANTELAFAAGITPVGVSSYSDYPPQAQKIEQVSTWQGMNLERIVALKPDLVIAWRGGNAERQVDQLASLGIKVMWVDATSIEQIANALRQLAPWSPQPDKAEQAAQSLLDQYAQLKAQYADKPKKRVFLQFGINPPFTSGKESIQNQVLEVCGGENIFKDSRVPWPQVSREQVLARSPQAIVITGGPDQIPKIKQYWGEQLKIPVIPLTSDWFERASPRIILAAQQLCNALSQVD
On to B1, for which the binding entry is “binds”.
